Measured values: the supplement of paper PMC10849652
Some of the results follow.

By UniProt entry, the sequences of proteins in these tests, tags left out. Where a name states a change or a piece, a line headed by the entry shows the natural chain unless it says otherwise.
UniProt Q9NUS5: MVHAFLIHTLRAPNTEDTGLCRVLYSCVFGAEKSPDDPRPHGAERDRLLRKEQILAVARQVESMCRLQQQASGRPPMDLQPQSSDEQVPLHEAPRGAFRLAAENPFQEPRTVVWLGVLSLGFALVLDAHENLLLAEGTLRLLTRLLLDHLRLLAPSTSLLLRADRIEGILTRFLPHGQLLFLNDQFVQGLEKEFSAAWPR
UniProt Q8NFD5, whole entry, looked up: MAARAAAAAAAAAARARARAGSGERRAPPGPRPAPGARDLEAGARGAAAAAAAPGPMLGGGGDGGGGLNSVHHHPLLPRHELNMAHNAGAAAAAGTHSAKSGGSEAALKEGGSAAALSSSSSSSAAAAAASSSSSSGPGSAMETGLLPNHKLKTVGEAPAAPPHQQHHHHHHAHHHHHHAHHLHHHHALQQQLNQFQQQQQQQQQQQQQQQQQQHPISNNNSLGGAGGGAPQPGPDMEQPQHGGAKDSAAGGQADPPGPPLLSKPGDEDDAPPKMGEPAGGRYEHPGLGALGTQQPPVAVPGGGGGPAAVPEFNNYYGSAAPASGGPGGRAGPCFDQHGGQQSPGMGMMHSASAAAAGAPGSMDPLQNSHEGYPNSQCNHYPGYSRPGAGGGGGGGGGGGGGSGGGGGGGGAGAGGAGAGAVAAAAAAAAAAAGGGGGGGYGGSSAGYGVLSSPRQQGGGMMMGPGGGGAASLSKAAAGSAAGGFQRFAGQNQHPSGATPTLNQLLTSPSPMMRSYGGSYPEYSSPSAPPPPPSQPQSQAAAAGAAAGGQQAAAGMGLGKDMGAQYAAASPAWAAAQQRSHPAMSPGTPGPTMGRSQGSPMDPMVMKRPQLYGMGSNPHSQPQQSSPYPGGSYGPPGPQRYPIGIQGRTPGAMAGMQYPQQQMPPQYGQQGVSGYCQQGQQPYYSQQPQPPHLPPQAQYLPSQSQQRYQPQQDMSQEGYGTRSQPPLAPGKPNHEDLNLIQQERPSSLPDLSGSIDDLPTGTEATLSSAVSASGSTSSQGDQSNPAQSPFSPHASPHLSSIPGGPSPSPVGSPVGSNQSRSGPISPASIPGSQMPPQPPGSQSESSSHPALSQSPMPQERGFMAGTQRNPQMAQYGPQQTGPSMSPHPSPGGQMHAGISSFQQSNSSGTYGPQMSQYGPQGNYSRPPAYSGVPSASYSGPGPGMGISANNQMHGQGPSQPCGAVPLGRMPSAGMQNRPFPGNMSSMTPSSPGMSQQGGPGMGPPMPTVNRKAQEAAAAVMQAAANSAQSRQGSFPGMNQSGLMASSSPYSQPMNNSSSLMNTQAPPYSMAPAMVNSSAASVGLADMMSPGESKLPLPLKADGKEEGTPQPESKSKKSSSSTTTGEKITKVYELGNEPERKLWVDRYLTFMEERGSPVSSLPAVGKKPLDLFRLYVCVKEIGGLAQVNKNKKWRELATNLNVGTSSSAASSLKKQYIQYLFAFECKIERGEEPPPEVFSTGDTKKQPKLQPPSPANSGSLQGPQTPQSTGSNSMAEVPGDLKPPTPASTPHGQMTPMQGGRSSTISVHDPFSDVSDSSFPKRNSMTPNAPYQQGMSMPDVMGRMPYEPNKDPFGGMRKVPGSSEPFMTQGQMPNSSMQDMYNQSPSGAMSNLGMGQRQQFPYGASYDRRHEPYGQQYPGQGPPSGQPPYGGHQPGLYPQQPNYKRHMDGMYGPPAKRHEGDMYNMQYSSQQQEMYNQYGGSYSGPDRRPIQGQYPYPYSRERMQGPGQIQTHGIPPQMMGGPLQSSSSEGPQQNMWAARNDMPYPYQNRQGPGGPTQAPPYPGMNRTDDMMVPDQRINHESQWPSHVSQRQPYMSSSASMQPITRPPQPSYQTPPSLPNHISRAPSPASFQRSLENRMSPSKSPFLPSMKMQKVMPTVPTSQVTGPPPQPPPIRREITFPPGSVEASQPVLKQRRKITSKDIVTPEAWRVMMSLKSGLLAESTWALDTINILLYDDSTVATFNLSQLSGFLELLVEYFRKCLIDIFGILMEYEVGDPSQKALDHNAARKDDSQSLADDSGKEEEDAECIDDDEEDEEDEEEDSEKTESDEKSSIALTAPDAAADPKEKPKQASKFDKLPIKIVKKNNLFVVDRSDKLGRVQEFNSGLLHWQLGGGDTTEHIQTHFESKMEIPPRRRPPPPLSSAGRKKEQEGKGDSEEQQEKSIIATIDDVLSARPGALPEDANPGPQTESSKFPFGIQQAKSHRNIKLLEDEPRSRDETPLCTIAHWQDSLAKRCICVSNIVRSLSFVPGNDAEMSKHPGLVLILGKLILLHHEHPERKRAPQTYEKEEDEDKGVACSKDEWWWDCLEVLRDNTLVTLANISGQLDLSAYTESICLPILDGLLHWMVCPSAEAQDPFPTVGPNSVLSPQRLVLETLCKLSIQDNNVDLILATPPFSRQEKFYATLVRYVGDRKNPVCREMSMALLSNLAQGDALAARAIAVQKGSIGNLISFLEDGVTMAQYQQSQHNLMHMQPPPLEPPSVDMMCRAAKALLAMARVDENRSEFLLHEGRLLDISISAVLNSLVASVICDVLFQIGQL
UniProt Q9Y6B7: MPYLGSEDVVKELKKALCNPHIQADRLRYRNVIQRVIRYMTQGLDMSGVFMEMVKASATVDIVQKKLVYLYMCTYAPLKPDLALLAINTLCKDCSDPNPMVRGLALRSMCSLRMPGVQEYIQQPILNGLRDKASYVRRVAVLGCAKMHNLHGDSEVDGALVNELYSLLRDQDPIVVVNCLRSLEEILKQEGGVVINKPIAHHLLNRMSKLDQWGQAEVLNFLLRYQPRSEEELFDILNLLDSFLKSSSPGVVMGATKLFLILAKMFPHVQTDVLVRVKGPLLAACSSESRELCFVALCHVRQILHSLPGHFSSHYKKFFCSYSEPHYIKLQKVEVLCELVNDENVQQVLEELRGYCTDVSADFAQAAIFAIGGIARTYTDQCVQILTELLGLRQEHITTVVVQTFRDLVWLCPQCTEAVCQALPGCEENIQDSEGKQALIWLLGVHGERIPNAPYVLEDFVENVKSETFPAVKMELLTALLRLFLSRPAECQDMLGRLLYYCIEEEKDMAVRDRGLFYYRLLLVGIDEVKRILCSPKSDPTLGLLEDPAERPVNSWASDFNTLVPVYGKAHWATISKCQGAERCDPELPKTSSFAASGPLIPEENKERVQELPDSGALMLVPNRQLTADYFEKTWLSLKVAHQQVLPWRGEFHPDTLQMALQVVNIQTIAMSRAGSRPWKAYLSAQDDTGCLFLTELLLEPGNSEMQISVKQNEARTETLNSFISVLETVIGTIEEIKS
UniProt P15514, whole entry, looked up: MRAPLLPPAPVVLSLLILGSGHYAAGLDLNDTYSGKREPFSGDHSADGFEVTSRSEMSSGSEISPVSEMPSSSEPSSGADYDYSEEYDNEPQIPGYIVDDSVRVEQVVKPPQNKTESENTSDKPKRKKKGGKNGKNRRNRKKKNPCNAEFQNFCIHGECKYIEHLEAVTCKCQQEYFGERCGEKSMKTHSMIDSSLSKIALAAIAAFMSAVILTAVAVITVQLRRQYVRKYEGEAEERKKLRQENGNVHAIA
UniProt Q9Y587: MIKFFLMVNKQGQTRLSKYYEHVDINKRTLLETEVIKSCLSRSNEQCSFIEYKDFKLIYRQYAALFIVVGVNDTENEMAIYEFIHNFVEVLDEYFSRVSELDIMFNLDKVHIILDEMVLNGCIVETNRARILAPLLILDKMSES
UniProt Q9UH17: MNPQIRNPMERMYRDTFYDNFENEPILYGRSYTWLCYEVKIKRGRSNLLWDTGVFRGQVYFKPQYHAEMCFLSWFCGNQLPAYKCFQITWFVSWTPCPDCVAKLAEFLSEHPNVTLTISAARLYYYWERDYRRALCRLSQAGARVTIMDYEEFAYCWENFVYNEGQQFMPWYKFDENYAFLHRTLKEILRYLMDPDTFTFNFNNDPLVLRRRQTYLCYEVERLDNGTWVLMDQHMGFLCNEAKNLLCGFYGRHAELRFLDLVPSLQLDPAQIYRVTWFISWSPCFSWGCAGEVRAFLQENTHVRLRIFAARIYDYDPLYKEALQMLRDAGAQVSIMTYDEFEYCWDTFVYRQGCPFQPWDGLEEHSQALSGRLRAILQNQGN
UniProt P53367: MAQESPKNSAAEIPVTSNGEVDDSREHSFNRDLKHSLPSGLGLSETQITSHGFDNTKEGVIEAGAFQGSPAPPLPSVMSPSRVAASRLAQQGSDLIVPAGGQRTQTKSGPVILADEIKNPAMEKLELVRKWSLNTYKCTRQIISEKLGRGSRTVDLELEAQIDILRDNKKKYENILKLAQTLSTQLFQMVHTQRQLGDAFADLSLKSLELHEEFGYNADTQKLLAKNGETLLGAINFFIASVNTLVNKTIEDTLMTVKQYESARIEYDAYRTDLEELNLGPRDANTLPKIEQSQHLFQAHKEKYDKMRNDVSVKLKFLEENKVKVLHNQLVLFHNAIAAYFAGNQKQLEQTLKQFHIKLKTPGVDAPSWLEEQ
UniProt Q7Z2E3: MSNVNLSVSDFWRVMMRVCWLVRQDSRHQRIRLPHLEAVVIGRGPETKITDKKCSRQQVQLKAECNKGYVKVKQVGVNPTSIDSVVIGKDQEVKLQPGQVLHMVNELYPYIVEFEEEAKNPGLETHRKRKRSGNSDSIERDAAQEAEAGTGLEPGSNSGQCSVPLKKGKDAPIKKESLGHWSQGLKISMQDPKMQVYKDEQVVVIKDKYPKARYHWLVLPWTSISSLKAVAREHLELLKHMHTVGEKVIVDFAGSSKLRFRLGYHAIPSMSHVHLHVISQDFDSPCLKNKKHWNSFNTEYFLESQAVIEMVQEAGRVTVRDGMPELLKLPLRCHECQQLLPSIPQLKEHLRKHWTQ
UniProt Q92624: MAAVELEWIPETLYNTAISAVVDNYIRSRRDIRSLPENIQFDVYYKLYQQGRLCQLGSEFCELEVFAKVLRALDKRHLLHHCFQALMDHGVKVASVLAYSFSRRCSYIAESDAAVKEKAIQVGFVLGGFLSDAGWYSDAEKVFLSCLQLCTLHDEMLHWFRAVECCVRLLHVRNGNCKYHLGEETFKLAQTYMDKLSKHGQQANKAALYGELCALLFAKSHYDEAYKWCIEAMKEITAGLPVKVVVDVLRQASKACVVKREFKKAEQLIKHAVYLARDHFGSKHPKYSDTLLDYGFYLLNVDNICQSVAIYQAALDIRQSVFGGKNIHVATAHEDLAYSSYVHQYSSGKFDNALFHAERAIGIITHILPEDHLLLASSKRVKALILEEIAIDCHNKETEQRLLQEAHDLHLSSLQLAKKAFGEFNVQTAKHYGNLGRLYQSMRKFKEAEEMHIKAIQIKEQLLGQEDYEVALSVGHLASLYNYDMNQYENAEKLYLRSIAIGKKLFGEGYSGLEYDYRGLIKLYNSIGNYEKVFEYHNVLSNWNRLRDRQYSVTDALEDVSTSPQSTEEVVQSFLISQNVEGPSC
UniProt Q9BZZ5: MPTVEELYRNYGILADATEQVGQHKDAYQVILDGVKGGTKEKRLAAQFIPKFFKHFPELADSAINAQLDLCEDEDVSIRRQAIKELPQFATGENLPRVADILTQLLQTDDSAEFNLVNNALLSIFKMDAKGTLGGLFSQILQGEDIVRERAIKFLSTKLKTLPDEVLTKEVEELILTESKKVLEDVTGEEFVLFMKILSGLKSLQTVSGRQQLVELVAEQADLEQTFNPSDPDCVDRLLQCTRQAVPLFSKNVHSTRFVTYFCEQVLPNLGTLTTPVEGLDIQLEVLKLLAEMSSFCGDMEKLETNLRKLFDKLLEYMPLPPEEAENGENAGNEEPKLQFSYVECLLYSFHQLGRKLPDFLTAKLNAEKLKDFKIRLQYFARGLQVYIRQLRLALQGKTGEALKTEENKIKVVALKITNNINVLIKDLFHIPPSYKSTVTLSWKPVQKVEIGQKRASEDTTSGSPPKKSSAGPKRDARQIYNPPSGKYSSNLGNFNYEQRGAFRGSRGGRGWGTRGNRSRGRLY
UniProt Q9UNK9: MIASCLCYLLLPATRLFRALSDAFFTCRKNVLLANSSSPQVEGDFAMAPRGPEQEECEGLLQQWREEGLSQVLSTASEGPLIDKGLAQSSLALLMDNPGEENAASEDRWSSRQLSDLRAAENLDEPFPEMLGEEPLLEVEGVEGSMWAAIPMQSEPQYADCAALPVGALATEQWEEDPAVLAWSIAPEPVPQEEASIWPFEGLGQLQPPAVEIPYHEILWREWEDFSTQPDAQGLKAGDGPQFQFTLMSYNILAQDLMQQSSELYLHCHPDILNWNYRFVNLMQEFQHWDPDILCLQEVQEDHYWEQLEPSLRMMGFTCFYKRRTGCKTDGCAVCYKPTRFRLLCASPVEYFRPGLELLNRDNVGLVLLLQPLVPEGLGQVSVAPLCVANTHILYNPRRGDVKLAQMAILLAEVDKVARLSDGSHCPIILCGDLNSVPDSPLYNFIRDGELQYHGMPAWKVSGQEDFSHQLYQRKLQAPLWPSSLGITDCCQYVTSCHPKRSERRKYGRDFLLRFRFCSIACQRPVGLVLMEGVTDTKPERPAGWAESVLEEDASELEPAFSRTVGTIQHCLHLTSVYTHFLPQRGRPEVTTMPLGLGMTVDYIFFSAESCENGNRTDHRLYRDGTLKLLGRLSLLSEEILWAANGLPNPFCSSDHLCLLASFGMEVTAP

What was measured:
Test in all cases: log2 fold change, soluble protein after heating vs DMSO (PISA); higher = thermal stabilisation; K562 cells, 10 uM, 30 min; active = over 0.2 and 3.5 SD of the protein, either way, in both replicates (recomputed)
[1] = compound: CCN(CCCOc1ccc2c(Nc3cc(CC(=O)Nc4cccc(F)c4)[nH]n3)ncnc2c1)CCOP(=O)(O)O [barasertib]
Method in brief: (§1)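 Soluble protein was quantified by TMTpro 16plex LC-MS/MS after channel sums were equalised. It was obtained as the supernatant after 21,000xg for 90 min from pooled aliquots of K562 cells (2×10^6 cells/mL, 10 μM compound, 30 min) heated for 3 min across 48°C-58°C and extracted in PBS with 0.5% NP-40 at 4°C. Thermal stability values are relative to control samples and come from duplicates. They are given as log2 fold changes.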

[2] = compound: CCCc1cc(C)[nH]c(=O)c1CNC(=O)c1cc(-c2ccnc(N3CCN(C)CC3)c2)cc2c1cnn2C(C)C
Method in brief: as §1

[3] = compound: CC1=C(C=C(C=C1)NC(=O)C2=CC(=CC=C2)N(C)C)NC(=O)C3=CC=C(C=C3)O
Method in brief: as §1

[4] = compound: CC1=NC(=CC=C1)C2=C(N=C(N2)C(C)(C)C)C3=CC4=NC=CN=C4C=C3
Method in brief: as §1

[5] = compound: CC1=C(C=C(C=C1)NC(=O)C2=CC(=CC=C2)C(C)(C)C#N)NC3=CC4=C(C=C3)N=CN(C4=O)C
Method in brief: as §1

[6] = compound: CC1=CC=C(C=C1)SC2=C3C=C(SC3=CN=C2)C(=O)N
Method in brief: as §1

[7] = compound: CCCS(=O)(=O)Nc1ccc(F)c(C(=O)c2c[nH]c3ncc(-c4ccc(Cl)cc4)cc23)c1F [vemurafenib]
Method in brief: as §1

[8] = compound: CCCS(=O)(=O)Nc1ccc(F)c(C(=O)c2c[nH]c3ncc(Cl)cc23)c1F
Method in brief: as §1

[9] = compound: CCN(CC)Cc1ccc2cc(COC(=O)Nc3ccc(C(=O)NO)cc3)ccc2c1 [givinostat]
Method in brief: as §1

[10] = compound: CCCCN(Cc1ccc(C(=O)NO)cc1)C(=O)Nc1ccccc1 [Nexturastat A]
Method in brief: as §1

## APOL1 isoform 2 (UniProt O14791)
[1]
  log2 fold change: inactive: -0.097

## ARID4B (UniProt Q4LE39)
[2]
  log2 fold change: inactive: 0.102

## ANKRD27 (UniProt Q96NW4)
[3]
  log2 fold change: inactive: -0.024
[4]
  log2 fold change: inactive: -0.117

## APH1A (UniProt Q96BI3)
[5]
  log2 fold change: inactive: -0.136
[6]
  log2 fold change: inactive: 0.091
[4]
  log2 fold change: inactive: 0.042
[7]
  log2 fold change: inactive: 0.237
[8]
  log2 fold change: inactive: 0.121
[2]
  log2 fold change: inactive: -0.085
[9]
  log2 fold change: inactive: 0.021
[1]
  log2 fold change: inactive: 0.002

## AP5S1 (UniProt Q9NUS5)
[2]
  log2 fold change: inactive: 0.045
[9]
  log2 fold change: inactive: -0.195

## ARHGAP25 isoform 4 (UniProt P42331)
[10]
  log2 fold change: inactive: 0.078
[7]
  log2 fold change: inactive: 0.086
[2]
  log2 fold change: inactive: -0.052
[9]
  log2 fold change: inactive: 0.307
[1]
  log2 fold change: inactive: -0.018

## APOBEC3F (UniProt Q8IUX4)
[3]
  log2 fold change: inactive: -0.079
[6]
  log2 fold change: inactive: -0.121
[4]
  log2 fold change: inactive: -0.235
[10]
  log2 fold change: inactive: 0.421
[8]
  log2 fold change: inactive: 0.074
[1]
  log2 fold change: inactive: -0.249

## APBA2 (UniProt Q99767)
[10]
  log2 fold change: inactive: 0.013

## ARHGEF10 (UniProt O15013)
[7]
  log2 fold change: inactive: -0.111
[1]
  log2 fold change: inactive: 0.039

## ANKRD52 (UniProt Q8NB46)
[3]
  log2 fold change: inactive: -0.075
[4]
  log2 fold change: inactive: 0.133
[10]
  log2 fold change: inactive: 0.041
[7]
  log2 fold change: inactive: 0.215
[2]
  log2 fold change: inactive: 0.093
[9]
  log2 fold change: inactive: 0.061

## APOL2 (UniProt J3KQL8)
[5]
  log2 fold change: inactive: -0.088
[6]
  log2 fold change: inactive: 0
[10]
  log2 fold change: inactive: 0.123
[7]
  log2 fold change: inactive: 0.021
[8]
  log2 fold change: inactive: -0.075
[2]
  log2 fold change: inactive: 0.058
[9]
  log2 fold change: inactive: 0.072
[1]
  log2 fold change: inactive: 0.041

## AP3M2 (UniProt P53677)
[4]
  log2 fold change: inactive: 0.12
[2]
  log2 fold change: inactive: 0.075
[9]
  log2 fold change: inactive: 0.198
[1]
  log2 fold change: inactive: 0.032

## ARID1B isoform 3 (UniProt Q8NFD5)
[3]
  log2 fold change: inactive: -0.17
[1]
  log2 fold change: inactive: 0.043

## AP1B1 isoform 3 (UniProt Q10567)
[3]
  log2 fold change: inactive: -0.007
[6]
  log2 fold change: inactive: 0.031
[4]
  log2 fold change: inactive: 0.063
[10]
  log2 fold change: inactive: -0.183
[7]
  log2 fold change: inactive: 0.076
[8]
  log2 fold change: inactive: 0.039
[2]
  log2 fold change: inactive: 0.128

## AP4B1 (UniProt Q9Y6B7)
[5]
  log2 fold change: inactive: 0.079
[4]
  log2 fold change: inactive: 0.211
[7]
  log2 fold change: inactive: 0.07
[9]
  log2 fold change: inactive: 0.027
[1]
  log2 fold change: inactive: 0.035

## AREG (UniProt P15514)
[6]
  log2 fold change: inactive: -0.057
[4]
  log2 fold change: inactive: 0.1
[8]
  log2 fold change: inactive: -0.083
[9]
  log2 fold change: inactive: 0.088

## AP4S1 (UniProt Q9Y587)
[5]
  log2 fold change: inactive: 0.033
[6]
  log2 fold change: inactive: -0.017
[4]
  log2 fold change: inactive: -0.007
[10]
  log2 fold change: inactive: -0.097
[7]
  log2 fold change: inactive: 0.107
[8]
  log2 fold change: inactive: 0.02
[2]
  log2 fold change: inactive: 0.102
[9]
  log2 fold change: inactive: 0
[1]
  log2 fold change: inactive: -0.008

## ARHGAP35 (UniProt Q9NRY4)
[3]
  log2 fold change: inactive: -0.09
[6]
  log2 fold change: inactive: -0.233
[4]
  log2 fold change: inactive: 0.08
[10]
  log2 fold change: inactive: 0.206
[7]
  log2 fold change: inactive: -0.001
[8]
  log2 fold change: inactive: 0.056
[2]
  log2 fold change: inactive: 0.104
[9]
  log2 fold change: inactive: 0.065

## ANKRD11 (UniProt Q6UB99)
[5]
  log2 fold change: inactive: -0.209
[3]
  log2 fold change: inactive: 0.07
[7]
  log2 fold change: inactive: -0.18
[2]
  log2 fold change: inactive: -0.758
[9]
  log2 fold change: inactive: -0.009
[1]
  log2 fold change: inactive: 0.044

## AP1G2 (UniProt O75843)
[3]
  log2 fold change: inactive: 0.082
[6]
  log2 fold change: inactive: -0.164
[8]
  log2 fold change: inactive: 0.212
[9]
  log2 fold change: inactive: 0.065

## APOBEC3B (UniProt Q9UH17)
[3]
  log2 fold change: inactive: 0.072
[4]
  log2 fold change: inactive: -0.479

## ANKRD16 (UniProt Q6P6B7)
[5]
  log2 fold change: inactive: -0.001
[6]
  log2 fold change: inactive: 0.085
[10]
  log2 fold change: inactive: 0.256
[7]
  log2 fold change: inactive: 0.051
[8]
  log2 fold change: inactive: -0.173
[2]
  log2 fold change: inactive: -0.051
[9]
  log2 fold change: inactive: 0.129
[1]
  log2 fold change: inactive: -0.173

## ANXA2 (UniProt H0YMT9)
[4]
  log2 fold change: inactive: 0.041
[10]
  log2 fold change: inactive: 0.179
[1]
  log2 fold change: inactive: -0.242

## AP2M1 (UniProt C9JTK4)
[5]
  log2 fold change: inactive: -0.04
[4]
  log2 fold change: inactive: -0.033
[10]
  log2 fold change: inactive: 0.009
[7]
  log2 fold change: inactive: -0.262
[2]
  log2 fold change: inactive: -0.172
[1]
  log2 fold change: inactive: -0.079

## ARFIP1 isoform 2 (UniProt P53367)
[5]
  log2 fold change: inactive: -0.106
[6]
  log2 fold change: inactive: 0.051
[4]
  log2 fold change: inactive: 0.031
[10]
  log2 fold change: inactive: -0.025
[8]
  log2 fold change: inactive: 0.097
[2]
  log2 fold change: inactive: 0.121
[9]
  log2 fold change: inactive: 0.061
[1]
  log2 fold change: inactive: 0.019

## APOA4 (UniProt P06727)
[3]
  log2 fold change: inactive: 0.142
[10]
  log2 fold change: inactive: 0.029
[7]
  log2 fold change: inactive: 0.23
[2]
  log2 fold change: inactive: -0.272
[1]
  log2 fold change: inactive: 0.126

## APTX (UniProt Q7Z2E3)
[5]
  log2 fold change: inactive: 0.269
[4]
  log2 fold change: inactive: -0.157
[10]
  log2 fold change: inactive: 0.214
[9]
  log2 fold change: inactive: 0.074

## APPBP2 (UniProt Q92624)
[3]
  log2 fold change: inactive: -0.08
[6]
  log2 fold change: inactive: -0.245
[4]
  log2 fold change: inactive: -0.025
[8]
  log2 fold change: inactive: 0.047
[1]
  log2 fold change: inactive: 0.235

## API5 isoform 1 (UniProt Q9BZZ5)
[6]
  log2 fold change: inactive: 0
[10]
  log2 fold change: inactive: -1.16
[7]
  log2 fold change: inactive: 0.063
[8]
  log2 fold change: inactive: -0.3

## ANKRD13C (UniProt Q8N6S4)
[10]
  log2 fold change: inactive: 0.214
[7]
  log2 fold change: inactive: 0.13

## ANGEL1 (UniProt Q9UNK9)
[3]
  log2 fold change: inactive: -0.121
[4]
  log2 fold change: active: 0.591
[7]
  log2 fold change: inactive: -0.079
[1]
  log2 fold change: inactive: 0.033

## ANKH (UniProt Q9HCJ1)
[3]
  log2 fold change: inactive: -0.239
[6]
  log2 fold change: inactive: -0.171
[4]
  log2 fold change: inactive: -0.166
[8]
  log2 fold change: inactive: -0.209
[9]
  log2 fold change: inactive: -0.088

## APLF (UniProt Q8IW19)
[6]
  log2 fold change: inactive: 0.097
[8]
  log2 fold change: inactive: -0.153

## ANKRD36 (UniProt A6QL64)
[5]
  log2 fold change: inactive: -0.383
[10]
  log2 fold change: inactive: 0.067
[7]
  log2 fold change: inactive: 0.008
[2]
  log2 fold change: inactive: 0.035

## APOC2 (UniProt P02655)
[4]
  log2 fold change: inactive: -0.043
[7]
  log2 fold change: inactive: 0.08
[2]
  log2 fold change: inactive: -0.089

## ARHGAP5 (UniProt Q13017)
[3]
  log2 fold change: inactive: 0.186
[10]
  log2 fold change: inactive: -0.052
[9]
  log2 fold change: inactive: 0.176
[1]
  log2 fold change: inactive: 0.115

## ANKLE2 (UniProt Q86XL3)
[6]
  log2 fold change: inactive: -0.048
[4]
  log2 fold change: inactive: -0.064
[7]
  log2 fold change: inactive: 0.029
[8]
  log2 fold change: inactive: -0.088

## APC (UniProt P25054)
[3]
  log2 fold change: inactive: -0.004
[4]
  log2 fold change: inactive: -0.449
[10]
  log2 fold change: inactive: 0.054
[7]
  log2 fold change: inactive: -0.018
[9]
  log2 fold change: inactive: 0.017
[1]
  log2 fold change: inactive: -0.104
